According to the supplement of paper PMC12823440, “Inhibitors supercharge kinase turnover through native proteolytic circuits” (Nature, 2025):
Counter-ions that a name gives are not always drawn. The list shows a part of the results. Hit calls seldom repeat between salt and free forms of one compound.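 Kinases, fused to nanoluciferase, were expressed in K562 cells; luminescence was measured every 4 h from 2 to 18 h as percent of control (DMSO = 100%, positive control = 0%). A time point is decreased if signal falls significantly (2 sigma). Hits were called by the authors by a rule that is not shown; the count of time points alone does not decide it.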

Sequences of proteins named here, by UniProt entry; tags and fusion partners are left off. A change or cut given only in a name is not applied to a line headed by its entry.
UniProt O75460: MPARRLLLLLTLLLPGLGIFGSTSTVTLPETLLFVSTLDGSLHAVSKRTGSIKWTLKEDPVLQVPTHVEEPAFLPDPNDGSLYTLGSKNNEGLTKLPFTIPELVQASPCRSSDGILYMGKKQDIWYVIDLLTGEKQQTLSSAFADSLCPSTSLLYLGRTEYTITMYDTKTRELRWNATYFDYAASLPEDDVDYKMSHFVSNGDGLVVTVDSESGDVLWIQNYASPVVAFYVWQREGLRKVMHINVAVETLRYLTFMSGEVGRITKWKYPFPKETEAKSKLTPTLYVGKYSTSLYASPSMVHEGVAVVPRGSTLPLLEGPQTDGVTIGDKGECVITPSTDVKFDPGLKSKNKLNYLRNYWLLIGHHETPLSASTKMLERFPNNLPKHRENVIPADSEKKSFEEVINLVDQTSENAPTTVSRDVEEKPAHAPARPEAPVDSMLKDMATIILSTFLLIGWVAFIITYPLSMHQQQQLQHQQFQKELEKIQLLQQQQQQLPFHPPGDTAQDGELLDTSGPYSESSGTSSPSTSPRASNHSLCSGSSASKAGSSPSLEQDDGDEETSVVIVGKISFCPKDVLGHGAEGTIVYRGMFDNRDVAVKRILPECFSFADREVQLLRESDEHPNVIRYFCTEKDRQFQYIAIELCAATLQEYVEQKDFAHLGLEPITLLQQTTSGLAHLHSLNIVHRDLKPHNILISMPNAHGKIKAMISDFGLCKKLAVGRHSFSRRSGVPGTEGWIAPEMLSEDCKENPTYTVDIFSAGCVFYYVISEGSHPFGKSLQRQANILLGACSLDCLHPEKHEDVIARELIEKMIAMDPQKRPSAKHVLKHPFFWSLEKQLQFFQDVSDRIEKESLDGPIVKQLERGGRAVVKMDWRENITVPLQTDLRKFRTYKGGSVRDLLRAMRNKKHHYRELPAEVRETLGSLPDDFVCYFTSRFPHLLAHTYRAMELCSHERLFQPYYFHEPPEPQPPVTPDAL
UniProt P11362, whole entry, looked up: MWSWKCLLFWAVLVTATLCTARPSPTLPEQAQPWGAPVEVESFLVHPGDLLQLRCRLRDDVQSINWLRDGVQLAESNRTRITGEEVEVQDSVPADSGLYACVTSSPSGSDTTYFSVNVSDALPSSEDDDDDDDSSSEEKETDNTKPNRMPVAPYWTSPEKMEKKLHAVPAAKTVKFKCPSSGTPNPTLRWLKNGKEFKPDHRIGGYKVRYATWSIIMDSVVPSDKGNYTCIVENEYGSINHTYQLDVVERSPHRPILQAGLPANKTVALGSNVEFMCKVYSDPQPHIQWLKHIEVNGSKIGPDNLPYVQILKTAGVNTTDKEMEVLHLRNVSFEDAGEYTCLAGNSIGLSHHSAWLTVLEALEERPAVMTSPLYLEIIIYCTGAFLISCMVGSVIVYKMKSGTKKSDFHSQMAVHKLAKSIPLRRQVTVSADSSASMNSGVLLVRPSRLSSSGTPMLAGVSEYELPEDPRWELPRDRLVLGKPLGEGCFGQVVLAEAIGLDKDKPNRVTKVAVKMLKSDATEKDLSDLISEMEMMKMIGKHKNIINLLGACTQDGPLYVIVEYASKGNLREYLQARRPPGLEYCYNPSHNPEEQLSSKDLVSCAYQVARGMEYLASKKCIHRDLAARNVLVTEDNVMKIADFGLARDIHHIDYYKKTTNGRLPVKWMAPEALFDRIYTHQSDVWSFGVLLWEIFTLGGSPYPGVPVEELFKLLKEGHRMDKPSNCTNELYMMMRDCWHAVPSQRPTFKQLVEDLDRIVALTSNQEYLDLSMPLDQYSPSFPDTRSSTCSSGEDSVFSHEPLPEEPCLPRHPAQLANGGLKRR
UniProt P22607, whole entry, looked up: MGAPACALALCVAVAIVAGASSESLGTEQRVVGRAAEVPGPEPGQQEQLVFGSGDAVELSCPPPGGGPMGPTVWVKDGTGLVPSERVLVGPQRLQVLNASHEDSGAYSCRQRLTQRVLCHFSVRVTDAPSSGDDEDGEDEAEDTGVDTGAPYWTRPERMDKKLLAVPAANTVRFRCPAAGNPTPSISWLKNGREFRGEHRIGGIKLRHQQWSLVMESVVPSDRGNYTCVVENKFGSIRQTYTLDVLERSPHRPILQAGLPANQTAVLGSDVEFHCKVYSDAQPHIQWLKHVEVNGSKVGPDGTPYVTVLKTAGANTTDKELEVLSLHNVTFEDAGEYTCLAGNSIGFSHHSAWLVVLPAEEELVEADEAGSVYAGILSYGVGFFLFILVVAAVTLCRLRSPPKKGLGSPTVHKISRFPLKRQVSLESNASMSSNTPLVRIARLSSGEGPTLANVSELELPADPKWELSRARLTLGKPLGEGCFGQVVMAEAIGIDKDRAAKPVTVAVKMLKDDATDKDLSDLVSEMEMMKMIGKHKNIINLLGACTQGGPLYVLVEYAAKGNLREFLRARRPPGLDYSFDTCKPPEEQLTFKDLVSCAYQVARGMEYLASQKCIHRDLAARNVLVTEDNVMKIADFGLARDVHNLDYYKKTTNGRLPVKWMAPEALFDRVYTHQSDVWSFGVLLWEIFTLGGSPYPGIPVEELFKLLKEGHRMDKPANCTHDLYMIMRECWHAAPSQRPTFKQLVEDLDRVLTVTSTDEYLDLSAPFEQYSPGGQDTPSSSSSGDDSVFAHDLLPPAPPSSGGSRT
UniProt P36888, whole entry: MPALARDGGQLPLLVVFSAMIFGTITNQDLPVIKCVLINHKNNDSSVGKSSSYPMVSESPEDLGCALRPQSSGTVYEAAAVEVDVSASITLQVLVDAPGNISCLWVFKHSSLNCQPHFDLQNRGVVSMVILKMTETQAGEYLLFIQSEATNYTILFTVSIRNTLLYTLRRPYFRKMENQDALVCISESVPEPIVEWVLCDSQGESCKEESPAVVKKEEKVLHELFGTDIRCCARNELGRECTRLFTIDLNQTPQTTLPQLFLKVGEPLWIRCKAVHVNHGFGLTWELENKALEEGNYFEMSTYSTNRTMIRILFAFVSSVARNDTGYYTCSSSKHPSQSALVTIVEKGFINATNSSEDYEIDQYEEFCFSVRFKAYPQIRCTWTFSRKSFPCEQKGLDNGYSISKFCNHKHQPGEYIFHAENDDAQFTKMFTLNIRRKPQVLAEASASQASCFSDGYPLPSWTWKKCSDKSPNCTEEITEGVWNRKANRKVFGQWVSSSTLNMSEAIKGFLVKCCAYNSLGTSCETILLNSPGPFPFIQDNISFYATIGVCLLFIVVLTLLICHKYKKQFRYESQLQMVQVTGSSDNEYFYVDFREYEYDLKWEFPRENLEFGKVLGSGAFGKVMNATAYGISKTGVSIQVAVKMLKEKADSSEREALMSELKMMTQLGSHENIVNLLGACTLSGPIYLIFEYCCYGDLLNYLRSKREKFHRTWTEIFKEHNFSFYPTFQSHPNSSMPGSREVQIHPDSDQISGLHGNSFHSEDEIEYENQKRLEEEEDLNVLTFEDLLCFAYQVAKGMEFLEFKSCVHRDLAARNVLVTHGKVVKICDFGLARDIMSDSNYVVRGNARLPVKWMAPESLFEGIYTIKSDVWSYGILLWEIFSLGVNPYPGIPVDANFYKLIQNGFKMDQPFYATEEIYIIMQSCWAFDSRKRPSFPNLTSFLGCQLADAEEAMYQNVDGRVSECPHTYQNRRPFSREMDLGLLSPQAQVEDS
UniProt P06241, whole entry, looked up: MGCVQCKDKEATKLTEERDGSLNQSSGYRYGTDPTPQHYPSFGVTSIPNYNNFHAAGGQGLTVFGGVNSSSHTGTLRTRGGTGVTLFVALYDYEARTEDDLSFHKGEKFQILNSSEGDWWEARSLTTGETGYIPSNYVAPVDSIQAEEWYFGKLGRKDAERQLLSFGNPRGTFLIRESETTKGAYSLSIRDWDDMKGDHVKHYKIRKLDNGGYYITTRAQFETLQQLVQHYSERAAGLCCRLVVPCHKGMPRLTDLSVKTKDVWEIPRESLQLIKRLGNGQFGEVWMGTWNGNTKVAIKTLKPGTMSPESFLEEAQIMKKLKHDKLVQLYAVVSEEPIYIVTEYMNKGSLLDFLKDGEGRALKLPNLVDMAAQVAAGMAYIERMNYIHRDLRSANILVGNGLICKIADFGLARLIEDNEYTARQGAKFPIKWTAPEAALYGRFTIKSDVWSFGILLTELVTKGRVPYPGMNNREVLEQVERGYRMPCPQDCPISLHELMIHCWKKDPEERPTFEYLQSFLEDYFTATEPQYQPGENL
UniProt P49840: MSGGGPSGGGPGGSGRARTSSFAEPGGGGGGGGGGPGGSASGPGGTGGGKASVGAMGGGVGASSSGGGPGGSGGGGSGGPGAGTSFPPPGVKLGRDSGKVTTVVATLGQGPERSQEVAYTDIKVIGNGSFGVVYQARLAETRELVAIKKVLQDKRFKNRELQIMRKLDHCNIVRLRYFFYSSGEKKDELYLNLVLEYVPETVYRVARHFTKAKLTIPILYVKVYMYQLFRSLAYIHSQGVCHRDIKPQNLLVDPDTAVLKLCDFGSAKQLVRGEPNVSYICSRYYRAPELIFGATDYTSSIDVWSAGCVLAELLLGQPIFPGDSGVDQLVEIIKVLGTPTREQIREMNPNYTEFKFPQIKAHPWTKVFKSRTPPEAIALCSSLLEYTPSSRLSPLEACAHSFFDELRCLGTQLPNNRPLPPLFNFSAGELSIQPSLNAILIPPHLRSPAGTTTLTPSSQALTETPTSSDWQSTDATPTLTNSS
UniProt P14616: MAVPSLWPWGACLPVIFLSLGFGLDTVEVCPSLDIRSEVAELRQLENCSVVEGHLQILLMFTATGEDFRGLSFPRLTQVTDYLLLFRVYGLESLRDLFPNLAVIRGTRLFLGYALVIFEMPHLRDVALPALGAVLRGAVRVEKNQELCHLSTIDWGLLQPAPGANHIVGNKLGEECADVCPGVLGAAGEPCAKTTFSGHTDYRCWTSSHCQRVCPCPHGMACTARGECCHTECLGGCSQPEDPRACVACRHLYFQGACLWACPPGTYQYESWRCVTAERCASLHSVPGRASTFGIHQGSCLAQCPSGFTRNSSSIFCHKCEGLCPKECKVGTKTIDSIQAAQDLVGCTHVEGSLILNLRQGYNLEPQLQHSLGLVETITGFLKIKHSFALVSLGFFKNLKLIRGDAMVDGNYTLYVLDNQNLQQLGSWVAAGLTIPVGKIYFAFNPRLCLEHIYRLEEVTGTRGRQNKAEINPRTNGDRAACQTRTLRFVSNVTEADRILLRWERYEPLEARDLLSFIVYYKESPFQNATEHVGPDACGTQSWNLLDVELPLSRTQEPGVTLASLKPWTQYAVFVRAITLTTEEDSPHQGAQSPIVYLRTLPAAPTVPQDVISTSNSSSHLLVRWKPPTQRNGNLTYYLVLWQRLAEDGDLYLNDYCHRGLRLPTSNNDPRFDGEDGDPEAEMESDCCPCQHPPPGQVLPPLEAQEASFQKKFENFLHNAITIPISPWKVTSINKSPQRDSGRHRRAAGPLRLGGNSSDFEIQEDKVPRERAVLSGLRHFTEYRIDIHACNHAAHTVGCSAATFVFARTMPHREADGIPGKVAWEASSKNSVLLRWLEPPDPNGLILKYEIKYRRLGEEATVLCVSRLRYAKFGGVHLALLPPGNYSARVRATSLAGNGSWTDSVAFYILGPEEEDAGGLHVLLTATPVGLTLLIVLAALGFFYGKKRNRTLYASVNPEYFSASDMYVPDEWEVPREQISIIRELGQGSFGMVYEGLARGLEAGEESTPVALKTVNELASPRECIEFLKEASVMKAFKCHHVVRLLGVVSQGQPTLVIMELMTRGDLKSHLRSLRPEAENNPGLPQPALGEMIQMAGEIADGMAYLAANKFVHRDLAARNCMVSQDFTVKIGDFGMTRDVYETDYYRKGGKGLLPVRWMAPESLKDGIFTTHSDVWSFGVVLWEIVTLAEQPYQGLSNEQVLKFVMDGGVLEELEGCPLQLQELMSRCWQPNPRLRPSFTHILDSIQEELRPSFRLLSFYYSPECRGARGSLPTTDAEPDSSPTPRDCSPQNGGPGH

Tests used:
Assay in all cases: kinase-Nluc reporter destabilization hit call (1 = scored as downregulated) (binary); higher = compound decreases kinase abundance
Settings in all cases: K562; 2-18 h
ERN1 = ERN1 (UniProt O75460)
FGFR1 = FGFR1 (UniProt P11362)
FGFR2 = FGFR2 (UniProt P21802)
FGFR3 = FGFR3 (UniProt P22607)
FGR = FGR (UniProt P09769)
FLT3 = FLT3 (UniProt P36888)
FYN = FYN (UniProt P06241)
GSK3A = GSK3A (UniProt P49840)
HER2 = HER2 (UniProt P04626)
INSRR = INSRR (UniProt P14616)

Structure (SMILES) | kinase-Nluc reporter destabilization hit call (ERN1) | kinase-Nluc reporter destabilization hit call (FGFR1) | kinase-Nluc reporter destabilization hit call (FGFR2) | kinase-Nluc reporter destabilization hit call (FGFR3) | kinase-Nluc reporter destabilization hit call (FGR) | kinase-Nluc reporter destabilization hit call (FLT3) | kinase-Nluc reporter destabilization hit call (FYN) | kinase-Nluc reporter destabilization hit call (GSK3A) | kinase-Nluc reporter destabilization hit call (HER2) | kinase-Nluc reporter destabilization hit call (INSRR)
C[C@H]1CNC(=O)c2cnn3ccc(nc23)N[C@H](C)c2cc(F)ccc2O1 [Repotrectinib] (2.5 µM) | inactive: 0 | inactive: 0 | inactive: 0 | inactive: 0 | inactive: 0 | inactive: 0 | inactive: 0 | inactive: 0 | inactive: 0 | inactive: 0
COc1ccc(C2CC(c3ccc(Cl)cc3)=NN2c2nc(-c3ccncc3)cs2)cc1 (stereo not given) [mTOR inhibitor-8] (10 µM) | inactive: 0 | inactive: 0 | inactive: 0 | inactive: 0 | inactive: 0 | inactive: 0 | inactive: 0 | inactive: 0 | inactive: 0 | inactive: 0
Cc1cc(=O)[nH]c(=S)[nH]1 [Methylthiouracil] (10 µM) | inactive: 0 | inactive: 0 | inactive: 0 | inactive: 0 | inactive: 0 | inactive: 0 | inactive: 0 | inactive: 0 | inactive: 0 | inactive: 0
CC(C)(C)NS(=O)(=O)c1cncc(-c2cc(F)c3nc(N)nn3c2)c1 (10 µM) | inactive: 0 | inactive: 0 | inactive: 0 | inactive: 0 | inactive: 0 | inactive: 0 | inactive: 0 | inactive: 0 | inactive: 0 | inactive: 0
Cc1cc(/C=C2\CC/C(=C\c3cc(C)c(O)c(C)c3)C2=O)cc(C)c1O [Pentagamavunon-1] (2.5 µM) | inactive: 0 | inactive: 0 | inactive: 0 | inactive: 0 | inactive: 0 | inactive: 0 | inactive: 0 | inactive: 0 | inactive: 0 | inactive: 0
NC(=O)c1cccc2c(N[C@H](CN3CCC3)c3ccc(Cl)c(C(F)(F)F)c3)ncnc12 (10 µM) | inactive: 0 | inactive: 0 | inactive: 0 | inactive: 0 | inactive: 0 | inactive: 0 | inactive: 0 | inactive: 0 | inactive: 0 | inactive: 0
CN(C/C=C/C(=O)Nc1ccc(C(=O)Nc2cccc(Nc3ncc(Cl)c(-c4c[nH]c5ccccc45)n3)c2)cc1)CCCNC(=O)NCCOCCOCCOCCNC(=O)CCCC[C@@H]1SC[C@@H]2NC(=O)N[C@@H]21 (2.5 µM) | inactive: 0 | inactive: 0 | inactive: 0 | inactive: 0 | inactive: 0 | inactive: 0 | inactive: 0 | inactive: 0 | inactive: 0 | inactive: 0
Oc1ccc2ccccc2c1SSc1c(O)ccc2ccccc12 (10 µM) | inactive: 0 | inactive: 0 | inactive: 0 | inactive: 0 | inactive: 0 | inactive: 0 | inactive: 0 | inactive: 0 | inactive: 0 | inactive: 0
CN(C)CCCn1cc(C2=C(c3c[nH]c4ccccc34)C(=O)NC2=O)c2ccccc21 [Bisindolylmaleimide I] (2.5 µM) | inactive: 0 | inactive: 0 | inactive: 0 | inactive: 0 | inactive: 0 | inactive: 0 | inactive: 0 | inactive: 0 | inactive: 0 | inactive: 0
Cc1cc(F)c(Nc2ncnc3cc(OCc4ccccc4)ccc23)cc1O (10 µM) | inactive: 0 | inactive: 0 | inactive: 0 | inactive: 0 | inactive: 0 | inactive: 0 | inactive: 0 | inactive: 0 | inactive: 0 | inactive: 0
C[C@H](Nc1ccc2c(c1)OCCn1cc(N3C(=O)OC[C@H]3C(F)F)nc1-2)C(N)=O (10 µM) | inactive: 0 | inactive: 0 | inactive: 0 | inactive: 0 | inactive: 0 | inactive: 0 | inactive: 0 | inactive: 0 | inactive: 0 | inactive: 0
CN(c1ccc(C(F)(F)F)cc1)S(=O)(=O)c1ccc(C(=O)Nc2nc(-c3ccccn3)cs2)cc1 (2.5 µM) | inactive: 0 | inactive: 0 | inactive: 0 | inactive: 0 | inactive: 0 | inactive: 0 | inactive: 0 | inactive: 0 | inactive: 0 | inactive: 0
CS(=O)(=O)N1CCN(Cc2cn3cc(-c4cnc(N)nc4)nc(N4CCOCC4)c3n2)CC1 (10 µM) | inactive: 0 | inactive: 0 | inactive: 0 | inactive: 0 | inactive: 0 | inactive: 0 | active: 1 | inactive: 0 | inactive: 0 | inactive: 0
CCn1c(-c2nonc2N)nc2c(C#CCO)ncc(OCCCN)c21 [AKT Kinase Inhibitor] (10 µM) | inactive: 0 | inactive: 0 | inactive: 0 | inactive: 0 | inactive: 0 | inactive: 0 | inactive: 0 | inactive: 0 | inactive: 0 | inactive: 0
CC(C)(O)c1cc(Nc2cc(Oc3cn(C4CC4)nc3C3CCOCC3)ccn2)ccn1 (10 µM) | inactive: 0 | inactive: 0 | inactive: 0 | inactive: 0 | inactive: 0 | inactive: 0 | inactive: 0 | inactive: 0 | inactive: 0 | inactive: 0
COc1cc(OC)c(/C=C/S(=O)(=O)Cc2ccc(OC)c(NCC(=O)O)c2)c(OC)c1 [Rigosertib (sodium)] (10 µM) | inactive: 0 | inactive: 0 | inactive: 0 | inactive: 0 | inactive: 0 | inactive: 0 | inactive: 0 | inactive: 0 | inactive: 0 | inactive: 0
Cc1nc(NC(=O)N2CCC[C@H]2C(N)=O)sc1-c1csc(C(C)(C)C)n1 (10 µM) | inactive: 0 | inactive: 0 | inactive: 0 | inactive: 0 | inactive: 0 | inactive: 0 | inactive: 0 | inactive: 0 | inactive: 0 | inactive: 0
C=CC(=O)Nc1cccc(Oc2nc(Nc3ccc(N4CCN(C)CC4)cc3)ncc2Cl)c1 (2.5 µM) | inactive: 0 | inactive: 0 | inactive: 0 | inactive: 0 | inactive: 0 | inactive: 0 | inactive: 0 | inactive: 0 | active: 1 | inactive: 0
Nc1nc2c(ncn2COCCO)c(=O)[nH]1 [Acyclovir] (10 µM) | inactive: 0 | inactive: 0 | inactive: 0 | inactive: 0 | inactive: 0 | inactive: 0 | inactive: 0 | inactive: 0 | inactive: 0 | inactive: 0
Cc1c(C(=O)Nc2ccc(Oc3ccnc4cc(OCC(C)(C)O)ccc34)c(F)c2)c(=O)n(-c2ccccc2)n1C [Ningetinib Tosylate] (10 µM) | inactive: 0 | inactive: 0 | inactive: 0 | inactive: 0 | inactive: 0 | inactive: 0 | inactive: 0 | inactive: 0 | inactive: 0 | inactive: 0
CCC(=O)N1CC[C@H](Nc2ncnc3c2CN(c2cnc(OC)c(C(F)(F)F)c2)CC3)C1 [Leniolisib] (10 µM) | inactive: 0 | inactive: 0 | inactive: 0 | inactive: 0 | inactive: 0 | inactive: 0 | inactive: 0 | inactive: 0 | inactive: 0 | inactive: 0
O=C(N=c1sccn1Cc1ccccc1)c1c[nH]c2ncccc12 (10 µM) | inactive: 0 | inactive: 0 | inactive: 0 | inactive: 0 | inactive: 0 | inactive: 0 | inactive: 0 | inactive: 0 | inactive: 0 | inactive: 0
Cn1cc(-c2ccc3ncc(Cc4ccc5ncccc5c4)n3n2)cn1 (10 µM) | inactive: 0 | inactive: 0 | inactive: 0 | inactive: 0 | inactive: 0 | inactive: 0 | inactive: 0 | inactive: 0 | inactive: 0 | inactive: 0
CN(C)CCCNc1ccn2ncc(-c3ccc4c(c3)OCO4)c2n1 (10 µM) | inactive: 0 | inactive: 0 | inactive: 0 | inactive: 0 | inactive: 0 | inactive: 0 | inactive: 0 | inactive: 0 | inactive: 0 | inactive: 0
O=C(O)/C=C/c1cc(Br)c(Br)c(Br)c1Br (10 µM) | inactive: 0 | inactive: 0 | inactive: 0 | inactive: 0 | inactive: 0 | inactive: 0 | inactive: 0 | inactive: 0 | inactive: 0 | inactive: 0
COC[C@H]1Cn2cc(-c3nc(Nc4ccnn4C)ncc3C)nc2C(=O)N1Cc1ccc(F)c(F)c1 (10 µM) | inactive: 0 | inactive: 0 | inactive: 0 | inactive: 0 | inactive: 0 | inactive: 0 | inactive: 0 | inactive: 0 | inactive: 0 | inactive: 0
CNS(=O)(=O)Nc1nccc(Cc2c(C)c3ccc(Oc4ncccn4)cc3oc2=O)c1F (10 µM) | inactive: 0 | inactive: 0 | inactive: 0 | inactive: 0 | inactive: 0 | inactive: 0 | inactive: 0 | inactive: 0 | inactive: 0 | inactive: 0
CNC(=O)Nc1cc(Oc2cncc(C)c2)c(-c2ccc(OCC(C)(C)O)nc2)cn1 (2.5 µM) | inactive: 0 | inactive: 0 | inactive: 0 | inactive: 0 | inactive: 0 | inactive: 0 | inactive: 0 | inactive: 0 | inactive: 0 | inactive: 0

Copied from the list.
Under kinase-Nluc reporter destabilization hit call (FGR), COc1ccc(C2CC(c3ccc(Cl)cc3)=NN2c2nc(-c3ccncc3)cs2)cc1 (stereo not given) [mTOR inhibitor-8] (10 µM) has inactive: 0
Under kinase-Nluc reporter destabilization hit call (GSK3A), CCC(=O)N1CC[C@H](Nc2ncnc3c2CN(c2cnc(OC)c(C(F)(F)F)c2)CC3)C1 [Leniolisib] (10 µM) has inactive: 0
